Experimental findings from article PMC11943097, “Phytochemical Characterization and Anticancer Activity of Clerodendrum chinense Leaf Extract Against Breast and Cervical Cancer Cells” (International Journal of Molecular Sciences, 2025) are described below.

This data set has as its system HeLa cells. Kind of data set: MTT cell viability assay, HeLa cells. It is filed as cell-based. The protocol: MCF-7, HeLa, and RAW264.7 cells were cultured in DMEM supplemented with 10% FBS and 1% penicillin/streptomycin. Cell culture was maintained at 37 °C in a 5% CO2 incubator.
The assessment of cell viability was performed using an MTT assay to assess the cytotoxic effects of CCL on MCF-7, Hela, and RAW264.7 cells. Initially, MCF-7, HeLa, and RAW264.7 cells were seeded onto 96-well plates at a density of 2 × 10^4 cells/mL. Following a 24-h incubation period, the culture medium was replaced with a serum-free medium containing specified concentrations of CCL, verbascoside, isoverbascoside, and hispidulin ranging from 12.5 to 1000 µg/mL. Following 24, 48, and 72 h of treatment, an MTT solution (0.5 mg/mL in culture medium) was added to each well and incubated at 37 °C for 2 h. The metabolically active cells converted MTT into formazan crystals, which were then dissolved in 100 µL of DMSO per well. Absorbance was recorded at 550 nm using a SpectraMax 3 microplate reader (Molecular Devices, San Jose, CA, USA). The IC50 values were determined using GraphPad Prism v.7.0 (La Jolla, CA, USA). Cell viability was assessed in comparison to untreated control cells using the following equation: Cell viability %=A550sample/A550control×100%

`COc1c(O)cc2oc(-c3ccc(O)cc3)cc(=O)c2c1O` [Hispidulin]: the “toxicity comparison ratio (IC50 of RAW 264.7/IC50 of HeLa)” value (shortened to “toxicity comparison ratio”) (24 h) came to 1.0, the “toxicity comparison ratio” value (48 h) is 1.0 and the “toxicity comparison ratio” value (72 h) was 0.6.

For the compound `C[C@@H]1O[C@@H](O[C@@H]2[C@@H](O)[C@H](OCCc3ccc(O)c(O)c3)O[C@H](CO)[C@H]2OC(=O)/C=C/c2ccc(O)c(O)c2)[C@H](O)[C@H](O)[C@H]1O` [Verbascoside], the “toxicity comparison ratio” value is, setting by setting: (24 h) 1.2; (48 h) 1.5; (72 h) 1.4.
